Results are given in words; binding and its absence hold for the method and conditions named. In cells and extracts the contact can be indirect. For some of these results: Binding can be weak; no strength is given. Where a sequence is shown, tags or fusion partners need not be part of it.
Legend:
Assay in all cases: co-IP; HEK293T cells co-transfected for 48 h with Myc-tagged EGFR (full-length or truncated) and Flag-tagged ZNRF1 (full-length or truncated); immunoprecipitation and immunoblotting with the indicated antibodies
[1] = molecular target: Myc-tagged EGFR TKD plus C-terminal truncated form
[2] = molecular target: Myc-tagged EGFR C-terminal truncated form
[3] = molecular target: Myc-tagged EGFR N-terminal truncated form
[4] = molecular target: Myc-tagged EGFR tyrosine kinase domain (TKD) truncated form

B1: Flag-tagged full-length ZNRF1, expressed in HEK293T cells (enzyme, UniProt Q8ND25 1-227)
chain: MGGKQSTAARSRGPFPGVSTDDSAVPPPGGAPHFGHYRTGGGAMGLRSRSVSSVAGMGMDPSTAGGVPFGLYTPASRGTGDSERAPGGGGSASDSTYAHGNGYQETGGGHHRDGMLYLGSRASLADALPLHIAPRWFSSHSGFKCPICSKSVASDEMEMHFIMCLSKPRLSYNDDVLTKDAGECVICLEELLQGDTIARLPCLCIYHKSCIDSWFEVNRSCPEHPAD
binding [1]: binds
binding [2]: no binding
binding [3]: no binding
binding [4]: binds
